Measured values published in the supplement of paper PMC7661543.
± gives the standard deviation of the averaged measurements. The effect of the compound repeats well; differences between the knockouts mostly do not.

Experiments:
[1] = tested on: HCC-38; test: relative cell number vs DMSO control (72 h) (% of DMSO); higher = less growth inhibition (more cells)
Experimental: (§1)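 QMAP-Seq: a pool of 5 breast cancer cell lines (ZR-75-1, SKBR3, HCC-38, MDA-MB-231, BT-20), each carrying 12 doxycycline-inducible Cas9 sgRNA perturbations (11 knockouts plus non-targeting sgNT), was treated with compounds for 72 h at four 10-fold doses (10 nM-10 uM or 1 nM-1 uM range). Barcodes were amplified and sequenced, and cell number was interpolated from 293T spike-in standard curves. The result is expressed as % of the median of DMSO wells. Two biological replicates.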

[2] = tested on: MDA-MB-231; test: as above
Experimental: as §1

COc1cc([C@@H]2c3cc4c(cc3[C@@H](O[C@@H]3O[C@@H]5CO[C@@H](c6cccs6)O[C@H]5[C@H](O)[C@H]3O)[C@H]3COC(=O)[C@H]23)OCO4)cc(OC)c1O [Teniposide]
relative cell number
Details	[1]	[2]
sgRNA knockout: sgATF3, 10 nM	78.1 ± 4.9	99.2 ± 10
sgRNA knockout: sgATF3, 100 nM	42.2 ± 8.1	29.6 ± 13
sgRNA knockout: sgATF3, 1000 nM	23.4 ± 0.41	20.6 ± 3.8
sgRNA knockout: sgATF3, 10000 nM	15.4 ± 3.2	10.1 ± 3
sgRNA knockout: sgATF4, 10 nM	78.6 ± 6.8	79.8 ± 16
sgRNA knockout: sgATF4, 100 nM	44 ± 4.5	33.9 ± 10
sgRNA knockout: sgATF4, 1000 nM	24.6 ± 0.38	24.3 ± 12
sgRNA knockout: sgATF4, 10000 nM	12.7 ± 1.1	12.2 ± 8.4
sgRNA knockout: sgATF6, 10 nM	90.2 ± 4.2	89.9 ± 17
sgRNA knockout: sgATF6, 100 nM	55 ± 6.5	25.2 ± 0.81
sgRNA knockout: sgATF6, 1000 nM	25.1 ± 2.5	19.9 ± 13
sgRNA knockout: sgATF6, 10000 nM	12.6 ± 3.7	15.3 ± 4.1
sgRNA knockout: sgATG7, 10 nM	85.2 ± 8.4	89.3 ± 9.1
sgRNA knockout: sgATG7, 100 nM	47.9 ± 11	29.4 ± 2.8
sgRNA knockout: sgATG7, 1000 nM	26 ± 2.9	16.2 ± 3.5
sgRNA knockout: sgATG7, 10000 nM	16.5 ± 5	7.86 ± 2.6
sgRNA knockout: sgERN1, 10 nM	95.4 ± 6.7	83.2 ± 1.4
sgRNA knockout: sgERN1, 100 nM	49.7 ± 3.1	39.2 ± 6.1
sgRNA knockout: sgERN1, 1000 nM	26.4 ± 1.4	12.4 ± 0.6
sgRNA knockout: sgERN1, 10000 nM	15.5 ± 4.3	6.96 ± 1.3
sgRNA knockout: sgHSF1, 10 nM	86 ± 15	67.9 ± 0.81
sgRNA knockout: sgHSF1, 100 nM	32.7 ± 5.4	27.4 ± 2.9
sgRNA knockout: sgHSF1, 1000 nM	35.1 ± 7.5	19.6 ± 1.1
sgRNA knockout: sgHSF1, 10000 nM	16.3 ± 5.8	10.9 ± 1.6
sgRNA knockout: sgHSF2, 10 nM	84.6 ± 7.7	95.1 ± 17
sgRNA knockout: sgHSF2, 100 nM	48.7 ± 4.5	25.2 ± 3.4
sgRNA knockout: sgHSF2, 1000 nM	25.3 ± 1.2	24.4 ± 10
sgRNA knockout: sgHSF2, 10000 nM	15.2 ± 4.1	9.15 ± 4.7
sgRNA knockout: sgKEAP1, 10 nM	102 ± 2.8	93.7 ± 22
sgRNA knockout: sgKEAP1, 100 nM	58.7 ± 5	32.2 ± 7.5
sgRNA knockout: sgKEAP1, 1000 nM	29 ± 4.3	21.8 ± 11
sgRNA knockout: sgKEAP1, 10000 nM	19.5 ± 6.7	6.17 ± 1.4
sgRNA knockout: sgNFE2L2, 10 nM	76.3 ± 6.8	85.3 ± 1.3
sgRNA knockout: sgNFE2L2, 100 nM	45.4 ± 4.7	28.7 ± 12
sgRNA knockout: sgNFE2L2, 1000 nM	22.7 ± 0.63	21.1 ± 3
sgRNA knockout: sgNFE2L2, 10000 nM	10.5 ± 1.8	9.44 ± 2.7
sgRNA knockout: sgSLC35F2, 10 nM	84.7 ± 3.2	79.6 ± 13
sgRNA knockout: sgSLC35F2, 100 nM	48.36 ± 0.24	25.6 ± 14
sgRNA knockout: sgSLC35F2, 1000 nM	24.9 ± 2.7	21 ± 11
sgRNA knockout: sgSLC35F2, 10000 nM	12.1 ± 1.5	10.7 ± 0.46
sgRNA knockout: sgXBP1, 10 nM	81 ± 4	65.9 ± 4
sgRNA knockout: sgXBP1, 100 nM	45.8 ± 6.4	31.7 ± 6.7
sgRNA knockout: sgXBP1, 1000 nM	23.6 ± 0.58	19.2 ± 0.83
sgRNA knockout: sgXBP1, 10000 nM	14.2 ± 1.3	9.11 ± 0.88
